# Assay results: the supplement of paper PMC3334620
# The full ranking holds about 33,000 sequences; the median of “E-score (-0.5 to 0.5)” is about -0.0034, and the highest 2% start at about 0.25. The list shows a part of the results.
# Target: T1, Yap3 (UniProt P38749)
# T1 sequence: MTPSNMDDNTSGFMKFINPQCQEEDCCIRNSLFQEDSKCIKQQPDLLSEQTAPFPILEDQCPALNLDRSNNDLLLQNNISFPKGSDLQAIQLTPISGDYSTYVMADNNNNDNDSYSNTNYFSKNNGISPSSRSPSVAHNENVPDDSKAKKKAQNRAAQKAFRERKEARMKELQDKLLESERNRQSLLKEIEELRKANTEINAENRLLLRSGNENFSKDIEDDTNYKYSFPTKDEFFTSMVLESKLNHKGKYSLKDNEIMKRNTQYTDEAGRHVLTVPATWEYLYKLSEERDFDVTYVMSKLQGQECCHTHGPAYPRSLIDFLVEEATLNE
# Test: PBM E-score (8-mer binding enrichment) (E-score (-0.5 to 0.5)); higher = stronger / more preferred TF binding
# Conditions: protein concentration: 100 nM; construct: GST-full length
# Procedure, shortened: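 Universal all-10-mer Agilent arrays, fresh or stripped once, were converted to double-stranded form by primer extension. GST-tagged yeast transcription factors from PURExpress in vitro transcription/translation, full-length or DNA-binding domain only, were applied at about 100-200 nM and detected with fluorescent anti-GST. After masliner normalisation, the Universal PBM Analysis Suite scored each ungapped eight-base word together with its reverse complement by E-score.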
row,Sequence,PBM E-score
1,ACCCCTAG,-0.134
2,ACGTATAA,0.134
3,ATTCCAGC,-0.141
4,CCCCGTCA,-0.169
5,CGACAATC,-0.0622
6,AGGAAAGC,-0.0454
7,ACTAAAGT,0.066
8,GTTATTAA,0.262
9,AACTGCAG,-0.019
10,CCAAACCA,0.0197
11,GGCGCACC,-0.279
12,AGACGTAT,0.0232
13,AGTGATCA,-0.0243
14,GCCCCGGA,-0.205
15,GCAACCCA,-0.11
16,ACACGCAA,0.145
17,TAGGATCA,0.0339
18,AACGCGAG,0.126
19,ATGTCAAA,0.152
20,AAACACTT,0.081
21,GACACTTA,-0.0329
22,GCTGCAGA,0.0952

row,Sequence,PBM E-score
1,AGGCGGGC,-0.268
2,ACATGTCA,0.036
3,AATTAGAA,0.0871
4,AGTAGTGG,0.0946
5,CGGGTCTA,-0.122
6,ACTGACCC,-0.288
7,AGAACTCA,0.15
8,ATAAAGGC,0.0448
9,ACCCGTAC,0.0141
10,GGCAACGA,0.0882
11,CGAAGGGA,-0.0657
12,ACGATACG,-0.143
13,CGGTCTCC,-0.203
14,CTAGTCCA,-0.0602
15,CCCGACCG,-0.3
16,GAATCGGA,0.141
17,AGTTTGAT,0.196
18,CAGACACC,-0.047
19,CAAAGTGA,0.0818
20,CAACCCCA,0.061
21,CAACTTAC,0.0185
22,AGACACCC,-0.165

row,Sequence,PBM E-score
1,AATCAAGC,-0.0795
2,CATCAGGA,-0.0225
3,AGCCGCTA,-0.0701
4,AGGTGTCG,-0.057
5,CTGGCCCA,-0.248
6,ACAACAAC,0.173
7,ACTCAAAT,0.0819
8,GACTTAAC,-0.152
9,ACGCTGTG,0.00262
10,ATATGATA,0.264
11,GGGAGGTA,-0.0852
12,TCAGAGCA,-0.116
13,GCACGGCA,0.0203
14,AAATTCCA,0.269
15,ATAATATA,0.307
16,ATCACGTG,0.0436
17,GAGTGCGC,-0.00802
18,CGCTCCAG,-0.276
19,AATTAATA,0.353
20,AAGCTTCG,-0.0846
21,ACCCGGTC,-0.134
22,ACTTATTC,0.162

row,Sequence,PBM E-score
1,TCGTGCAA,0.175
2,CGCATGAC,0.0695
3,AGTGTCTG,-0.0157
4,ACTGATGC,-0.103
5,CCTCTCTC,-0.184
6,CATAATCA,0.271
7,GAGGGTGC,-0.295
8,AAGTTGAT,0.0477
9,CCGGCTTC,-0.119
10,TGCGAAAA,0.0554
11,CCTCACGA,-0.0751
12,AGCAAAGC,0.0118
13,TAACATTA,0.166
14,ACCTACCC,-0.296
15,CCAATATC,0.129
16,ATCTCACA,-0.014
17,GTCCGGGA,0.0564
18,ATAATTCC,0.163
19,CATCCAAA,0.113
20,CGTGCGAC,-0.227
21,TAGGACCA,-0.0539
22,CCCCGTAG,-0.135

row,Sequence,PBM E-score
1,CTCAATGA,-0.0717
2,CACTTCGG,0.106
3,GGTTCTCA,-0.00233
4,ATTATATG,0.221
5,AGTGGCAG,0.0242
6,AAATCGAT,0.0774
7,ACTTTAGG,-0.214
8,ACCTAGAG,-0.122
9,GTCGGGCA,-0.0435
10,AGTAGTTC,0.0884
11,AGGGTTGC,-0.0559
12,CAAGCGCC,-0.22
13,CACAGGAC,-0.122
14,ACCCGTTG,-0.24
15,ACCGGAAC,0.0841
16,AGACGTTG,-0.0805
17,GGCGCTAA,-0.0117
18,CCTCTCAG,-0.334
19,GACTCCGC,-0.147
20,CTTTGCAA,0.0296
21,AAATGTTG,-0.124

# Pulled one by one from above (five):
row,Sequence,PBM E-score
12,CAAGCGCC,-0.22
7,ACTCAAAT,0.0819
13,GCACGGCA,0.0203
12,TCAGAGCA,-0.116
5,CCTCTCTC,-0.184
